The results in this text go back to PubChem BioAssay AID248 (DTP/NCI, 2004).

The list is a part of this screen's results and no random one: it is rich in T/C values a quarter to a half above the control, in often repeated tests (any T/C) and in doses without a T/C. Other doses and runs of a compound stand elsewhere. T/C: endpoint of the treated group in % of that of the vehicle group. Some entries give survivors of the animals treated and no T/C: the source files T/C as zero there, which appears to mark a toxic dose or a test without result, not a measured value. Some survivor counts are full or nearly so, which does not show that the dose was tolerated: the source hardly ever lists a survival T/C far under the control, and the zero likely stands for such cases as well. Survivors were counted at the toxicity check, usually on the fifth day, unless a day is given; later deaths do not show. Schedule codes are those of the source, read here as Q, the interval in days (D) or hours (H), X, the number of doses. Some schedules carry Z or #; the key to these is not given. For survival time, the PubChem record calls one and a half times the control and up active, and a quarter to a half above the control has no call in these data; cut-offs in other NCI protocols can differ. Some T/C values carry the count of animals alive at the toxicity check (mostly the fifth day); where none is given, no animal had died by that day. Some entries were tested several times; the results are listed from low to high.

This assay has as its system L1210 leukemia ip in BDF1 mice, survival T/C. Description: NCI In Vivo Anticancer Drug Screen. Data for tumor model L1210 Leukemia (intraperitoneal) in B6D2F1 (BDF1) mice. Conditions: T/C endpoint: mean survival time, higher T/C = longer survival.
Setting [1] is: dose: 400.0 mg/kg/injection, schedule: Q01DX001 (ip), vehicle: saline.
Setting [2] is: dose: 75.0 mg/kg/injection, schedule: Q01DX001 (ip), vehicle: saline.
The mark [3] stands for this setting: dose: 150.0 mg/kg/injection, schedule: Q01DX001 (ip), vehicle: saline.

Turning to `C=CC[N+](CC=C)(CC=C)C/C=C/C[N+](CC=C)(CC=C)CC=C`, the survivor count was 3 of 6 (dose: 50.0 mg/kg/injection, schedule: Q01DX009 (ip), vehicle: water); 0 of 6 (dose: 100.0 mg/kg/injection, schedule: Q01DX009 (ip), vehicle: water); 0 of 6 (dose: 100.0 mg/kg/injection, schedule: Q04DX003 (ip), vehicle: water); 0 of 6 (dose: 200.0 mg/kg/injection, schedule: Q01DX009 (ip), vehicle: water); 0 of 6 (dose: 200.0 mg/kg/injection, schedule: Q04DX003 (ip), vehicle: water); 0 of 6 (dose: 400.0 mg/kg/injection, schedule: Q04DX003 (ip), vehicle: water).

For `CC1(C)N=C(N)N=C(N)N1c1ccc(OCCNC(=O)Nc2ccc(S(=O)(=O)F)cc2)c(Cl)c1`, the survivor count by setting is: (dose: 200.0 mg/kg/injection, schedule: Q01DX009 (ip), vehicle: saline) 2 of 6; (dose: 400.0 mg/kg/injection, schedule: Q01DX009 (ip), vehicle: saline) 0 of 6.

Take `N=C(N)c1ccc(N=NNc2ccc(C(=N)N)cc2)cc1` (tested in a mixture with another compound): under setting [1], the survivor count was 0 of 6.

Take `C[C@@H]1CCC([C@@H](C)[C@H]2CC[C@H]3[C@@H]4CC[C@H]5C[C@@H](O)CC[C@]5(C)[C@H]4CC[C@]23C)=NC1`: the survivor count by setting is: (dose: 250.0 mg/kg/injection, schedule: Q01DX001 (ip), vehicle: saline) 0 of 4; (dose: 500.0 mg/kg/injection, schedule: Q01DX001 (ip), vehicle: saline) 0 of 4.

Regarding `O=C1C=CC(=O)N1c1cc(Cl)c(Cl)cc1Cl`, the survivor count under setting [2] is recorded as 0 of 6; the survivor count under setting [3] is 0 of 6; the survivor count (dose: 300.0 mg/kg/injection, schedule: Q01DX001 (ip), vehicle: saline) was 0 of 6.

Take `COc1cc(C=O)ccc1OC(=O)Nc1cccc(C(C)=O)c1`: the survivor count (dose: 400.0 mg/kg/injection, schedule: Q01DX009 (ip), vehicle: Klucel (hydroxypropylcellulose) (HPC)) is 1 of 6.

On to `O=C(O)c1ccccc1-c1ccc([N+](=O)[O-])cc1Cl`, for which the survivor count (dose: 600.0 mg/kg/injection, schedule: Q01DX001 (ip), vehicle: carboxymethylcellulose (CMC)) is on record as 0 of 6.

As to `CC1(C)OC(CI)C(COS(C)(=O)=O)O1` (stereo not drawn), where the note is “dose: 173.0 mg/kg/injection, schedule: Q01DX001 (ip), vehicle: steroid suspending solution”, the T/C is 132 % of control [5 of 6 alive]. The survivor count is 6 of 6 (dose: 266.0 mg/kg/injection, schedule: Q01DX001 (ip), vehicle: steroid suspending solution); 5 of 6 (dose: 400.0 mg/kg/injection, schedule: Q01DX001 (ip), vehicle: steroid suspending solution); 4 of 6 (dose: 600.0 mg/kg/injection, schedule: Q01DX001 (ip), vehicle: steroid suspending solution).

On to `CC1(C)N=C(N)N=C(N)N1c1cccc(OCc2cccc([N+](=O)[O-])c2)c1`, for which the survivor count runs as follows: (dose: 80.0 mg/kg/injection, schedule: Q01DX001 (ip), vehicle: saline) 0 of 4; (dose: 200.0 mg/kg/injection, schedule: Q01DX001 (ip), vehicle: saline) 2 of 4; under setting [1], 0 of 4.

`CCN(CCP(c1ccccc1)c1ccccc1)CCP(c1ccccc1)c1ccccc1`: the T/C runs as follows: (dose: 12.5 mg/kg/injection, schedule: Q01DX009 (ip), vehicle: Klucel (hydroxypropylcellulose) (HPC)) 127 and 140 % of control [5 of 6 alive]; (dose: 25.0 mg/kg/injection, schedule: Q01DX009 (ip), vehicle: Klucel (hydroxypropylcellulose) (HPC)) 125 % of control; (dose: 75.0 mg/kg/injection, schedule: Q01DX001 (ip), vehicle: other) 134 % of control. The survivor count was 6 of 6 (dose: 25.0 mg/kg/injection, schedule: Q01DX001 (ip), vehicle: Klucel (hydroxypropylcellulose) (HPC)); 6 of 6 (dose: 50.0 mg/kg/injection, schedule: Q01DX001 (ip), vehicle: Klucel (hydroxypropylcellulose) (HPC)); 6 of 6 (dose: 100.0 mg/kg/injection, schedule: Q01DX001 (ip), vehicle: Klucel (hydroxypropylcellulose) (HPC)); 6 of 6 (dose: 200.0 mg/kg/injection, schedule: Q01DX001 (ip), vehicle: Klucel (hydroxypropylcellulose) (HPC)); 1 of 6 (dose: 200.0 mg/kg/injection, schedule: Q01DX009 (ip), vehicle: Klucel (hydroxypropylcellulose) (HPC)); 2 of 6 (dose: 200.0 mg/kg/injection, schedule: Q04DX003 (ip), vehicle: Klucel (hydroxypropylcellulose) (HPC)). Under “dose: 400.0 mg/kg/injection, schedule: Q01DX001 (ip), vehicle: Klucel (hydroxypropylcellulose) (HPC)”, the survivor count is given as 6 of 6.

Take `Nc1cc(C(=O)Nc2ccc(C3=NCCN3)cc2)cc(C(=O)Nc2ccc(C3=NCCN3)cc2)c1`: the T/C by setting is: (dose: 16.0 mg/kg/injection, schedule: Q01DX010 (sc), vehicle: saline) 131 % of control; (dose: 32.0 mg/kg/injection, schedule: Q01DX Z (ip), vehicle: saline) 144 % of control.

Take `Nc1ccc(-c2ccc(N)c(Br)c2)cc1Br`: the survivor count (dose: 400.0 mg/kg/injection, schedule: Q04DX002 (ip), vehicle: Klucel (hydroxypropylcellulose) (HPC)) is 3 of 3.

Turning to `O=C(NCCCCCCNC(=O)Nc1ccc(C2=NCCCN2)cc1)Nc1ccc(C2=NCCCN2)cc1`, the survivor count (dose: 50.0 mg/kg/injection, schedule: Q01DX Z (ip), vehicle: carboxymethylcellulose (CMC)) was 0 of 6.

In the case of `CC(C)CNCc1cc(Nc2ccnc3cc(Cl)ccc23)ccc1O`, under “dose: 400.0 mg/kg/injection, schedule: Q04DX002 (ip), vehicle: saline”, the survivor count is reported as 0 of 3.

As to `Cc1ccc(C(C)(C)CP(c2ccccc2)c2ccccc2)cc1`, where the note is “dose: 100.0 mg/kg/injection, schedule: Q04DX002 (ip), vehicle: saline with Tween-80”, the survivor count is reported as 3 of 3.

With `CCC(C(=O)Nc1ccncc1)c1ccccc1` (stereo not drawn), the survivor count runs as follows: (dose: 37.5 mg/kg/injection, schedule: Q01DX001 (ip), vehicle: saline) 0 of 6; under setting [2], 0 of 6; under setting [3], 0 of 6.

Take `Nc1cc(N2CCCC2)nc(-c2ccccc2)n1`: the survivor count (dose: 200.0 mg/kg/injection, schedule: Q01DX009 (ip), vehicle: saline with Tween-80) was 0 of 3.

On to `COc1ccc2c(c1)Cc1cc(NC(=O)N(CCCl)N=O)ccc1-2`, for which the T/C (dose: 5.0 mg/kg/injection, schedule: Q01DX009 (ip), vehicle: saline) is 132 % of control; the T/C (dose: 15.0 mg/kg/injection, schedule: Q01DX001 (ip), vehicle: carboxymethylcellulose (CMC)) was 138 % of control; the T/C (dose: 30.0 mg/kg/injection, schedule: Q01DX001 (ip), vehicle: carboxymethylcellulose (CMC)) was 144 % of control; the T/C (dose: 60.0 mg/kg/injection, schedule: Q01DX001 (ip), vehicle: carboxymethylcellulose (CMC)) is 130 % of control; the T/C (dose: 75.0 mg/kg/injection, schedule: Q01DX009 (ip), vehicle: carboxymethylcellulose (CMC)) is 145 % of control; the T/C (dose: 90.0 mg/kg/injection, schedule: Q01DX001 (ip), vehicle: other) was 128 % of control. Further, the T/C reads like this: (dose: 118.0 mg/kg/injection, schedule: Q01DX009 (ip), vehicle: carboxymethylcellulose (CMC)) 125 % of control [5 of 6 alive]; (dose: 120.0 mg/kg/injection, schedule: Q01DX001 (ip), vehicle: carboxymethylcellulose (CMC)) 141 % of control; (dose: 177.0 mg/kg/injection, schedule: Q01DX001 (ip), vehicle: other) 127 % of control. Further, the survivor count is, setting by setting: (dose: 122.0 mg/kg/injection, schedule: Q01DX009 (ip), vehicle: other) 2 of 6; (dose: 177.0 mg/kg/injection, schedule: Q01DX009 (ip), vehicle: other) 1 of 6; (dose: 266.0 mg/kg/injection, schedule: Q01DX009 (ip), vehicle: other) 0 of 6; (dose: 400.0 mg/kg/injection, schedule: Q01DX001 (ip), vehicle: other) 0 of 6; (dose: 600.0 mg/kg/injection, schedule: Q01DX001 (ip), vehicle: other) 0 of 6.

Turning to `CN(Cc1ccccc1)C(=O)c1ccc(Cl)cc1`, for the setting “dose: 200.0 mg/kg/injection, schedule: Q04DX002 (ip), vehicle: Klucel (hydroxypropylcellulose) (HPC)”, the survivor count was 3 of 3.
